This assay has as its target PPAR-γ (UniProt P37238). Kind of assay: co-IP; 200 μg protein lysate supernatant with 2 μg FKBP51 or PPAR-γ antibody, 24 h at 4 °C, then Dynabeads 2 h at 4 °C; Western blot for FKBP51, PPAR-γ and PINK1; normal rabbit IgG as negative control. (In general: Immunoblotting shows a protein as a band on a membrane.)

Protein sequences, listed by entry. Tags and fused reporters are not part of them. Lines headed by an entry give the natural chain unless they say otherwise; changes in a name come on top.
UniProt Q99MQ3: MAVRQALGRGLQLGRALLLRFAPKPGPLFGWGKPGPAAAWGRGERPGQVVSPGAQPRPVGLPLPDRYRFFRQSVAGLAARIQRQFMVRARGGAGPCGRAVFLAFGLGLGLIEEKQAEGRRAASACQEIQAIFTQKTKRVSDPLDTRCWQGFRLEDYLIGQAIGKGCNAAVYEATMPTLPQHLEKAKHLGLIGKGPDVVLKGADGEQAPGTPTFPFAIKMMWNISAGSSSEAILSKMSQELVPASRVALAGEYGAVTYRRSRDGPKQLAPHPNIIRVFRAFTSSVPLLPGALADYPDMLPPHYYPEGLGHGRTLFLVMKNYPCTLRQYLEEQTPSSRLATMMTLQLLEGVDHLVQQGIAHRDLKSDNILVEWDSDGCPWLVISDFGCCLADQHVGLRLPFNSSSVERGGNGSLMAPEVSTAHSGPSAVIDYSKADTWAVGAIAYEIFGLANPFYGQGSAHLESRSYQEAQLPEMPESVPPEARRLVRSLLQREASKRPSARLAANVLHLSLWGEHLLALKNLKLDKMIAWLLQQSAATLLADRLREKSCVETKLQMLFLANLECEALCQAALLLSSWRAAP

These are yes or no findings as the source states them, for the method shown. Binding seen in cells or lysates may run through a third protein. Some binding calls cover weakened binding; strength is not graded here.

Take “PTEN-induced putative kinase 1 (from UniProt Q99MQ3 78-580)”: the binding result is “binds”.
